Among the data in article PMC10653843 are binding values, retold here.

These are yes or no findings as the source states them, for the method shown. In cells and extracts the contact can be indirect. A result given as binding can be weak or reduced; the word gives no strength.

This assay addresses Myc-Vpu (HIV-1). The assay is described as follows: co-IP; two batches of HEK293T cells transfected separately (FLAG-tagged hPSGL-1 WT or T379A; Myc-Vpu or Myc-Vpu A14L), lysates mixed, Vpu precipitated with anti-Myc magnetic beads overnight at 4°C; Western blot. A general note: Immunoblotting shows a protein as a band on a membrane.

B1: human PSGL-1 (protein, UniProt Q14242 42-412)
chain: QATEYEYLDYDFLPETEPPEMLRNSTDTTPLTGPGTPESTTVEPAARRSTGLDAGGAVTELTTELANMGNLSTDSAAMEIQTTQPAATEAQTTQPVPTEAQTTPLAATEAQTTRLTATEAQTTPLAATEAQTTPPAATEAQTTQPTGLEAQTTAPAAMEAQTTAPAAMEAQTTPPAAMEAQTTQTTAMEAQTTAPEATEAQTTQPTATEAQTTPLAAMEALSTEPSATEALSMEPTTKRGLFIPFSVSSVTHKGIPMAASNLSVNYPVGAPDHISVKQCLLAILILALVATIFFVCTVVLAVRLSRKGHMYPVRNYSPTEMVCISSLLPDGGEGPSATANGGLSKAKSPGLTPEPREDREGDDLTLHSFLP
As for B1, the binding entry is on record as “binds”.

B2: human PSGL-1 T379A (protein, UniProt Q14242 42-412)
chain: QATEYEYLDYDFLPETEPPEMLRNSTDTTPLTGPGTPESTTVEPAARRSTGLDAGGAVTELTTELANMGNLSTDSAAMEIQTTQPAATEAQTTQPVPTEAQTTPLAATEAQTTRLTATEAQTTPLAATEAQTTPPAATEAQTTQPTGLEAQTTAPAAMEAQTTAPAAMEAQTTPPAAMEAQTTQTTAMEAQTTAPEATEAQTTQPTATEAQTTPLAAMEALSTEPSATEALSMEPTTKRGLFIPFSVSSVTHKGIPMAASNLSVNYPVGAPDHISVKQCLLAILILALVATIFFVCTVVLAVRLSRKGHMYPVRNYSPTEMVCISSLLPDGGEGPSAAANGGLSKAKSPGLTPEPREDREGDDLTLHSFLP
As for B2, the binding result is “no binding”.
